Screen size: about 320,000 compounds; about 22,000 (6.9%) were called active. Inconclusive results, whose numbers are uncertain, are shown with a selection of clear calls. Calls come from the whole dose curve; as a rule, active = well fitted inhibition curve with a large enough effect; inconclusive = small, poorly fitted or top-dose-only effect, or another doubt; inactive = no such curve, though single readings can be large or run the other way. A potency beside an inconclusive call is a rough fit, not a confirmed value.
Assay: Primary qHTS for delayed death inhibitors of the malarial parasite plastid, 96 hour incubation
Settings: P. falciparum luciferase reporter growth; series mostly up to 28.7 µM; activity change, negative = inhibition: at the top concentration
How it was run: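 P. falciparum expressing integrated firefly luciferase grown in erythrocytes (2% hematocrit, 0.05% parasitemia final) with compounds for 96 hours at 37 C, 5% CO2. Growth inhibition read as loss of luminescence after adding luciferase detection reagent.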
% is set by controls: 0 for no effect and ±100 for the full control effect; potency is the fitted concentration of half-maximal effect.

SMILES	activity change, negative = inhibition	Potency
CCc1ccccc1NC(=S)N1CCN(c2ccccc2F)CC1	inactive: 362%	
CCN(CCNC(=O)C1CCCN(c2ncnc3c2nc2n3CCCCC2)C1)Cc1ccccc1 (stereo unspecified)		active: 10.4 µM
CC1(C)C(c2ccccc2)=NC(c2ccccc2)N1O (stereo unspecified)		inconclusive: 10.4 µM [inhibitor, single point]
Cc1cccc(N2N=C(C(=O)N3CC(=O)Nc4ccccc43)CCC2=O)c1		inconclusive: 18.5 µM [inhibitor, single point]
CCOC(=O)N1CCN(C(=O)c2cccc(S(=O)(=O)Nc3ccccc3Cl)c2)CC1		inconclusive: 9.28 µM [inhibitor, single point]
COc1ccc(-c2csc3nc(-c4cccnc4)nc(Cl)c23)cc1OC		active: 6.57 µM
COc1cc(C2c3c(c(C)c(C)oc3=O)Oc3c(C)c(C)oc(=O)c32)ccc1OS(=O)(=O)c1ccc(C)cc1		active: 4.65 µM
Cc1c(OCC(=O)NCCCN2CCOCC2)ccc2c1oc(=O)c1ccccc12		inconclusive: 18.5 µM [inhibitor, single point]
COc1ccccc1NC1=C(NC(C)=O)C(=O)c2ccccc2C1=O		inconclusive: 1.85 µM [inhibitor, full curve]
COc1cc(NC(=O)CN(C)S(=O)(=O)c2ccc3c(c2)CC(C)N3C(C)=O)cc(OC)c1OC (stereo unspecified)		inconclusive: 2.62 µM [inhibitor, partial curve, poor fit]
COC(=O)c1ccc(NCN2C(=O)C3C4CCC(C4)C3C2=O)cc1 (stereo unspecified)		inconclusive: 0.0047 µM [inhibitor, full curve, poor fit]
C=CCn1c(SCC#N)nnc1-c1ccc2ncccc2c1		inconclusive: 5.22 µM [inhibitor, partial curve]
CCC(C)c1ccc(O)c(NC(=O)c2cncc(Br)c2)c1 (stereo unspecified)	inactive: -22.5%	
CCOC(=O)CN(C)C(=O)CCc1nnc(-c2ccsc2)o1		inconclusive: 18.5 µM [inhibitor, single point]
C=CCn1c(=O)c2c3c(sc2n2c(Nc4ccccc4)nnc12)CCCC3		inconclusive: 14.7 µM [inhibitor, partial curve, poor fit]
COc1ccc(S(=O)(=O)N2CCOCC2)cc1NC(=O)CSc1nnc(C2CC2)n1N	inactive: -2.1%	
CC1CCc2c(nc3ncnn3c2NCCN(C)C)C1 (stereo unspecified)		inconclusive: 8.28 µM [inhibitor, single point]
Cc1ccc(NC(=O)CCNS(=O)(=O)c2ccc3[nH]c(=O)oc3c2)c(C)c1	inactive: -7.82%	
O=C(CCCC(=O)N1CCN(c2ccccc2F)CC1)c1ccccc1		inconclusive: 13.1 µM [inhibitor, single point]
CCc1ccc(/C=C2\Oc3c(ccc(O)c3CN3CCN(CCO)CC3)C2=O)cc1		inconclusive: 10.4 µM [inhibitor, single point]
COc1cccc(NC(=S)NCc2ccncc2)c1		active: 8.28 µM
Nc1c2c3c(sc2nc(=O)n1N)CCCC3		active: 6.57 µM
COc1ccccc1OC(C)C(=O)Nc1ccc2c(c1)OCCO2 (stereo unspecified)	inactive: 3.99%	
CC(=O)c1cccc(NC(=O)NC(C)C2CCCO2)c1 (stereo unspecified)		inconclusive: 18.5 µM [inhibitor, single point]

SMILES	activity change, negative = inhibition	Potency
O=C(Nc1ccccc1)c1ccc(S(=O)(=O)NCc2ccco2)cc1	inactive: 1.36%	
CCN1CCCC1CNC(=O)C1CCN(C(=O)c2cc3sccc3n2Cc2ccc(F)cc2)CC1 (stereo unspecified)		inconclusive: 18.5 µM [inhibitor, single point]
CCc1ccc2[nH]c3nc(SCC(=O)NNC(=O)c4ccc(C(C)(C)C)cc4)nnc3c2c1	inactive: 76.7%	
COc1ccc(C(=O)O/N=C(\N)c2ccc(OC)c(OC)c2)c(OC)c1	inactive: -9.17%	
O=C(c1csc2ccccc12)N1CCN(c2ccc(Cl)c(Cl)c2)CC1		inconclusive: 0.0037 µM [inhibitor, full curve, poor fit]
CCOc1ccc(NC(=O)NNC(=O)c2cc3ccccc3cc2O)cc1	inactive: 49%	
COc1ccc(CNC(=O)C2CCCN(S(=O)(=O)N3CCC(C)CC3)C2)c(OC)c1 (stereo unspecified)		inconclusive: 8.28 µM [inhibitor, partial curve, poor fit]
CCN(CC)CCNc1nc(-c2ccc(OC)cc2)c(-c2ccc(OC)cc2)s1		inconclusive: 16.5 µM [inhibitor, single point]
CC(C)(C)c1cc(NCCCn2ccnc2)n2ncc(-c3ccccc3)c2n1		inconclusive: 0.0928 µM [inhibitor, full curve, poor fit]
COc1cccc(-c2nn(-c3ccccc3)cc2/C=C\C(=O)c2cccs2)c1		inconclusive: 10.4 µM [inhibitor, single point]
O=P(Nc1cccc(Cl)c1)(Oc1ccccc1)Oc1ccccc1		inconclusive: 18.5 µM [inhibitor, single point]
NC(=O)Cc1nc(-c2ccc([N+](=O)[O-])cc2)cs1	inactive: 38.5%	
c1csc(CNc2nc(-c3cccs3)nc3ccccc23)c1		inconclusive: 18.5 µM [inhibitor, single point]
COc1cc(CNc2nc3ccccc3[nH]2)cc(OC)c1OC	inactive: -16.3%	
C#CCOc1ccc(Cl)cc1/C=N/O		inconclusive: 0.0738 µM [inhibitor, full curve, poor fit]
CC(Cc1ccccc1)NCC(=O)Nc1cc(N(C)C)nc2ccccc12 (stereo unspecified)		inconclusive: 18.5 µM [inhibitor, single point]
COc1ccccc1CNc1ncnc2nc[nH]c12		inconclusive: 14.7 µM [inhibitor, single point]
c1coc(-c2nn3c(-c4ccco4)nnc3s2)c1		inconclusive: 18.5 µM [inhibitor, single point]
CCn1c(=O)[nH]c2cc(C(=O)Nc3cc(C)cc(C)c3)ccc2c1=O	inactive: 29.7%	
COCCCn1c(C(C)C)nc2oc3cc(OC)ccc3c(=O)c2c1=O		inconclusive: 1.31 µM [inhibitor, full curve]
CSc1ccccc1NC(=O)Nc1cccc2ccccc12	inactive: 0.626%	
COc1ccc(OC)c(CCNC(=O)C(C)n2nc(C)c3c(C)n(-c4ccc(C)cc4)nc3c2=O)c1 (stereo unspecified)		inconclusive: 18.5 µM [inhibitor, single point]
Cc1cccc(CSCCNC(=O)CN2C(=O)c3ccccc3S2(=O)=O)c1		inconclusive: 5.22 µM [inhibitor, partial curve, poor fit]
Cc1cc(C(=O)CSc2nc3ccccc3c(=O)n2C)c(C)n1CC1CCCO1 (stereo unspecified)		inconclusive: 13.1 µM [inhibitor, single point]

Among those listed so far, these have four or more nitrogen atoms:
SMILES	activity change, negative = inhibition	Potency
CCN(CCNC(=O)C1CCCN(c2ncnc3c2nc2n3CCCCC2)C1)Cc1ccccc1 (stereo unspecified)		active: 10.4 µM
Cc1cccc(N2N=C(C(=O)N3CC(=O)Nc4ccccc43)CCC2=O)c1		inconclusive: 18.5 µM [inhibitor, single point]
C=CCn1c(SCC#N)nnc1-c1ccc2ncccc2c1		inconclusive: 5.22 µM [inhibitor, partial curve]
C=CCn1c(=O)c2c3c(sc2n2c(Nc4ccccc4)nnc12)CCCC3		inconclusive: 14.7 µM [inhibitor, partial curve, poor fit]
COc1ccc(S(=O)(=O)N2CCOCC2)cc1NC(=O)CSc1nnc(C2CC2)n1N	inactive: -2.1%	
CC1CCc2c(nc3ncnn3c2NCCN(C)C)C1 (stereo unspecified)		inconclusive: 8.28 µM [inhibitor, single point]
Nc1c2c3c(sc2nc(=O)n1N)CCCC3		active: 6.57 µM
CCN1CCCC1CNC(=O)C1CCN(C(=O)c2cc3sccc3n2Cc2ccc(F)cc2)CC1 (stereo unspecified)		inconclusive: 18.5 µM [inhibitor, single point]
CCc1ccc2[nH]c3nc(SCC(=O)NNC(=O)c4ccc(C(C)(C)C)cc4)nnc3c2c1	inactive: 76.7%	
CC(C)(C)c1cc(NCCCn2ccnc2)n2ncc(-c3ccccc3)c2n1		inconclusive: 0.0928 µM [inhibitor, full curve, poor fit]
CC(Cc1ccccc1)NCC(=O)Nc1cc(N(C)C)nc2ccccc12 (stereo unspecified)		inconclusive: 18.5 µM [inhibitor, single point]
COc1ccccc1CNc1ncnc2nc[nH]c12		inconclusive: 14.7 µM [inhibitor, single point]
c1coc(-c2nn3c(-c4ccco4)nnc3s2)c1		inconclusive: 18.5 µM [inhibitor, single point]
COc1ccc(OC)c(CCNC(=O)C(C)n2nc(C)c3c(C)n(-c4ccc(C)cc4)nc3c2=O)c1 (stereo unspecified)		inconclusive: 18.5 µM [inhibitor, single point]

(list continues)

SMILES	activity change, negative = inhibition	Potency
COc1ccccc1CCN1CCCC(CN(C)Cc2ccc(OCCO)cc2)C1 (stereo unspecified)	inactive: 0%	
CCCCNC(=O)CNC(=S)N(Cc1ccccc1)Cc1cccs1		inconclusive: 18.5 µM [inhibitor, single point]
Cc1cccc(C)c1OCC(=O)Nc1cccc(S(=O)(=O)N2CCCC2)c1		inconclusive: 9.28 µM [inhibitor, partial curve]
O=C(COc1ccc(S(=O)(=O)N2CCCC2)cc1Cl)Nc1ccc2c(c1)OCO2		inconclusive: 9.28 µM [inhibitor, partial curve]
COc1cccc(CNc2ccc3c(c2)ncn3C)c1OC	inactive: -10.5%	
CCn1c(CNc2ccc(F)cc2)nnc1SCC(=O)Nc1ccccc1OC		inconclusive: 18.5 µM [inhibitor, single point]
Cc1nc(NC(=O)c2ccc(Cl)cc2)sc1-c1csc(Nc2cccc(F)c2)n1		active: 2.62 µM
CCOC(=O)c1c(N)sc2c1CCSC2		inconclusive: 11.7 µM [inhibitor, single point]
CC(=O)Nc1ccc2nc(NC(=O)CCc3ccccc3)sc2c1		inconclusive: 0.0329 µM [inhibitor, full curve, poor fit]
C/C(CCC12CC3CC(CC(C3)C1)C2)=N\NC(N)=S		inconclusive: 18.5 µM [inhibitor, single point]
CC1(C)C2CCC1(C)C1(C2)NC(=O)c2ccccc2O1 (stereo unspecified)	inactive: 50.2%	
COc1ccc(-c2[nH]ncc2/C=N\NC(=O)c2ccc(C(C)(C)C)cc2)cc1OC		inconclusive: 6.57 µM [inhibitor, single point]
O=C(O)C(c1ccccc1)C1(O)CCCCC1 (stereo unspecified)	inactive: 37.9%	
Cc1ccc(NC(=S)Nc2ccc3cn[nH]c3c2)c(C)c1	inactive: 14.9%	
CC(C)CC(NS(=O)(=O)c1ccc2[nH]c(=O)c(=O)[nH]c2c1)C(=O)O (stereo unspecified)		inconclusive: 2.33 µM [inhibitor, full curve, poor fit]
CC(C)(C)c1ccc(NC(=O)NC2CCCc3ccccc32)cc1 (stereo unspecified)		inconclusive: 13.1 µM [inhibitor, single point]
Cc1ccc(Nc2nnc(SCC(=O)Nc3cccc(S(=O)(=O)N4CCCCC4)c3)s2)cc1		inconclusive: 18.5 µM [inhibitor, single point]
CC(C(=O)Nc1ccc(Cl)cc1)N(C)Cc1cccs1 (stereo unspecified)	inactive: -19%	
CCOC(=O)N1CCC(NC(=O)C2CCCCN2S(=O)(=O)c2ccc(F)cc2)CC1 (stereo unspecified)		active: 1.04 µM
CCN(CC)c1ccc(NC(=O)CN2CCN(c3ccc(F)cc3)CC2)cc1		inconclusive: 13.1 µM [inhibitor, single point]
COc1ccc2sc3ccccc3c(=O)c2c1OC	inactive: 56.4%	
Cc1ccc(C2(C)NC(=O)N(CC(=O)Nc3ccccc3C(=O)NC3CCCC3)C2=O)cc1 (stereo unspecified)		inconclusive: 18.5 µM [inhibitor, single point]
O=c1c2ccccc2nc2c3ccccc3c(NCc3cccnc3)nn12		inconclusive: 2.08 µM [inhibitor, partial curve, poor fit]

Reprinted from the entries so far, 2 compounds:
SMILES	activity change, negative = inhibition	Potency
Cc1c(OCC(=O)NCCCN2CCOCC2)ccc2c1oc(=O)c1ccccc12		inconclusive: 18.5 µM [inhibitor, single point]
COc1ccccc1NC1=C(NC(C)=O)C(=O)c2ccccc2C1=O		inconclusive: 1.85 µM [inhibitor, full curve]
